# Data from article PMC3998888.
# Chains of the proteins cited; added tags and fusions are not shown.
# UniProt G5EES3: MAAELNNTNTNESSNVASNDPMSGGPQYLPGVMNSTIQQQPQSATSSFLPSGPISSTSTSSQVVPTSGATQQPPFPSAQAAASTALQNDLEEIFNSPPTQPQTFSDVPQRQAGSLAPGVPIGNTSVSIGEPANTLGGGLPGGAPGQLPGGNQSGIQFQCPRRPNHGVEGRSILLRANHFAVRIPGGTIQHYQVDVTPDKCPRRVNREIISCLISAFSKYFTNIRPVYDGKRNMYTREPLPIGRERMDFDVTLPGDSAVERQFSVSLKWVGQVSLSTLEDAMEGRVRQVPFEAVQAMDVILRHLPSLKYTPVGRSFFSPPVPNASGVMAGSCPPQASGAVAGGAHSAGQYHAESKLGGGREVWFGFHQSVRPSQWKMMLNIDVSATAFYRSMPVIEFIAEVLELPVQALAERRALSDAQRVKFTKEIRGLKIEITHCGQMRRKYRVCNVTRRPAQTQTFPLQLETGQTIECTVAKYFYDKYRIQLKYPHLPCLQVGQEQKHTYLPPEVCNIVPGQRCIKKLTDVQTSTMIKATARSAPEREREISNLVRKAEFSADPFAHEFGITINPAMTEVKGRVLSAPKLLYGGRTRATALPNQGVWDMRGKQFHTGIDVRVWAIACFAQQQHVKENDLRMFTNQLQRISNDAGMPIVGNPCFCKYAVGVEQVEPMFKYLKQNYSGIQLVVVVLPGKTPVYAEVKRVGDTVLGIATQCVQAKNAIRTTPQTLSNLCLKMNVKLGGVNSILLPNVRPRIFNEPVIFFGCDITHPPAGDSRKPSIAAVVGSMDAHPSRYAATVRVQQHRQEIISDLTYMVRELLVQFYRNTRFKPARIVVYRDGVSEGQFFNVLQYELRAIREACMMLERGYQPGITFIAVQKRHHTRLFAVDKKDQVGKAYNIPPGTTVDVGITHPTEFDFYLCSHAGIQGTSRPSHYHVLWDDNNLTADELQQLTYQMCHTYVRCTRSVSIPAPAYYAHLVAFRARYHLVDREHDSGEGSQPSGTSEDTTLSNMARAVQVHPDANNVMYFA
# UniProt P34529: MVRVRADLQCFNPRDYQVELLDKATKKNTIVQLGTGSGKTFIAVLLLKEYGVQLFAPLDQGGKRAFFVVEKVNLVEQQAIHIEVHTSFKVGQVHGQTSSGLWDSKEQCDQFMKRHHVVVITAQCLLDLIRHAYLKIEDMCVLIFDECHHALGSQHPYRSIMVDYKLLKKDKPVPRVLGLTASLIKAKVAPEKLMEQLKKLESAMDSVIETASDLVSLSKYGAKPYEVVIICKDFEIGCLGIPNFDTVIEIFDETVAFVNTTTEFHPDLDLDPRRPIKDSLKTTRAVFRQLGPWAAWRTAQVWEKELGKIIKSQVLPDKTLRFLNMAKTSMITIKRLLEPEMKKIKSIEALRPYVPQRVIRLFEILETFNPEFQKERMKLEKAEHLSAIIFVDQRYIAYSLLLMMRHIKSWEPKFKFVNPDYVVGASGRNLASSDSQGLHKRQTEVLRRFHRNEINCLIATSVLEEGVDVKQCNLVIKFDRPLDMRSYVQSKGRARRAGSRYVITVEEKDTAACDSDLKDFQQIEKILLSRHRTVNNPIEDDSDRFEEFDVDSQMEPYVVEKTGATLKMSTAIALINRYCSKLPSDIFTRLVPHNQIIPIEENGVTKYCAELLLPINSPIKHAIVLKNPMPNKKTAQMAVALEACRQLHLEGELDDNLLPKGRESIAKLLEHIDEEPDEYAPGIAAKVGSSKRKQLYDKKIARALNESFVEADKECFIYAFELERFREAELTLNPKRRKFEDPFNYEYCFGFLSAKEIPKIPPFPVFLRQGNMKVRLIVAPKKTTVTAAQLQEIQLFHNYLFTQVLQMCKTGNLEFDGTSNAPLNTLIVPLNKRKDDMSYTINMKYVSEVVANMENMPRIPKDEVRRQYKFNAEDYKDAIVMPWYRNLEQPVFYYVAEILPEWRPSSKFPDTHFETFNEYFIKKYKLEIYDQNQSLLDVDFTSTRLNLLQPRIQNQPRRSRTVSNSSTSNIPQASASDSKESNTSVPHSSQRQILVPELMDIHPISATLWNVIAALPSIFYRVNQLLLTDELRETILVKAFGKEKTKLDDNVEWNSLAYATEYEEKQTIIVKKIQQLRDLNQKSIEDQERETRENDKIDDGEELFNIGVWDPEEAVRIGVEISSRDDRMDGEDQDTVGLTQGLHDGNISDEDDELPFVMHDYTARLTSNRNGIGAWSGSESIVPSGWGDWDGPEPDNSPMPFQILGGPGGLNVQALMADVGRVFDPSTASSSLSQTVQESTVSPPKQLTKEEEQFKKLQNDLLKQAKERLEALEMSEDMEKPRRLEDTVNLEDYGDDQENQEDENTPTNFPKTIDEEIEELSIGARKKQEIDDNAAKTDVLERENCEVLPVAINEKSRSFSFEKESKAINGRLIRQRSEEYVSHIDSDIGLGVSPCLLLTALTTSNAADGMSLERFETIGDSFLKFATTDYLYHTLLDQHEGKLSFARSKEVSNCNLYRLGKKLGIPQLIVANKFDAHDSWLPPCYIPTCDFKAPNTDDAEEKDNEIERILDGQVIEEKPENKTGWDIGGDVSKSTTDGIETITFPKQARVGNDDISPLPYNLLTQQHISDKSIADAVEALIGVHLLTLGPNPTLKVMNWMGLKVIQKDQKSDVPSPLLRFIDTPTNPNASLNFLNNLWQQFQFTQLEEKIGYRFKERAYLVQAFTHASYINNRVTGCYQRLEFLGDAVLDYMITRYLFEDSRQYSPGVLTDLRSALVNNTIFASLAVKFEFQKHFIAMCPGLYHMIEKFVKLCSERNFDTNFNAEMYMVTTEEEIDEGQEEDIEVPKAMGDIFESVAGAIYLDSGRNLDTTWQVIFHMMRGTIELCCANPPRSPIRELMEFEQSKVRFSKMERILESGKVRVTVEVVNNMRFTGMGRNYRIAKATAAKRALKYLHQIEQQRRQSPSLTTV
# Results are given in words; binding and its absence hold for the method and conditions named. Binding seen in cells or lysates may run through a third protein. Some entries that bind do so weakly or less than the wild type.
# Biological target: ALG-1 (wild type) (C. elegans (endogenous in whole animals)) (UniProt G5EES3)
# Assay: co-IP; ALG-1 immunoprecipitated with a custom ALG-1-specific polyclonal antibody (Anaspec) from whole protein lysate of wild type or alg-1(anti) animals; precipitate probed by Western blot with anti-ALG-1, anti-DCR-1 and anti-AIN-1; signals quantified as ratios to ALG-1 and normalised to wild type
substance,measurement,value
DCR-1 (Dicer) (from UniProt P34529 1-1910) (enzyme),binding,binds
